Measured values from paper PMC12378234, “Enzyme-mediated aminoglycoside resistance without target mimicry” (Communications Chemistry, 2025).
Where “and” joins values, the source holds several entries; their conditions need not be identical. Equal values may be shown once. Read-outs that look alike come from different tables or passages of the source. Further values from the same series stand in other lists.

System: BL21(DE3) E. coli transformed with pUCP18 vector expressing untagged AAC(3)-XIa
Type: cell-based
Description: Ten milliliters of LB containing […] ampicillin were inoculated from glycerol stocks of transformed BL21(DE3) E. coli containing genes expressing the proteins of interest in pUCP18 vectors. These cultures were incubated at 37 °C with 200 rpm agitation for 16 h. Turbidity was measured through OD600 with a NanoDrop OneC Spectrometer (Thermo Scientific). From the initial cultures, secondary 10 mL cultures were prepared with OD600 values of 0.1. These cultures were grown until OD600 values of 0.4–0.6 were reached and diluted to bring all cultures to the same OD600. Cultures were induced with 1 mM Isopropyl β-D-1-thiogalactopyranoside and incubated for 4 h. Two microliters of culture was added to 198 μL of LB with an appropriate aminoglycoside titration concentration. Each titration point was repeated n = 4 times. The formulated 96-well culture plate (Sarstedt) had OD600 measured on a 20-min interval over 17 h using a BioTek Cytation 5 Cell Imaging Multimode Reader, incubating at 37 °C with 282 cpm orbital agitation. Experiments were repeated with fresh cultures on separate days to ensure consistent trends. Data was analyzed in Microsoft Excel and GraphPad5. The remainder of the culture immediately had its RNA isolated for qPCR experiments.

SMILES: CN[C@@H]1[C@@H](O)[C@@H](O[C@@H]2[C@@H](O)[C@H](O[C@H]3OC(CN)=CC[C@H]3N)[C@@H](N)C[C@H]2N)OC[C@]1(C)O [Sisomicin, sisomicin]
- OD600 growth curve (3 ug/mL Sisomicin, time point 09:19:10): 0.649 and 0.567 and 0.553 and 0.7
- OD600 growth curve (3 ug/mL Sisomicin, time point 09:39:10): 0.663 and 0.576 and 0.569 and 0.713
- OD600 growth curve (3 ug/mL Sisomicin, time point 09:59:10): 0.673 and 0.58 and 0.572 and 0.722
- OD600 growth curve (3 ug/mL Sisomicin, time point 10:19:10): 0.681 and 0.584 and 0.574 and 0.73
- OD600 growth curve (3 ug/mL Sisomicin, time point 10:39:10): 0.688 and 0.59 and 0.577 and 0.737
- OD600 growth curve (3 ug/mL Sisomicin, time point 10:59:10): 0.695 and 0.594 and 0.579 and 0.743
- OD600 growth curve (3 ug/mL Sisomicin, time point 11:19:10): 0.704 and 0.599 and 0.583 and 0.753
- OD600 growth curve (3 ug/mL Sisomicin, time point 11:39:10): 0.711 and 0.601 and 0.586 and 0.758
- OD600 growth curve (3 ug/mL Sisomicin, time point 11:59:10): 0.718 and 0.602 and 0.586 and 0.765
- OD600 growth curve (3 ug/mL Sisomicin, time point 12:19:10): 0.726 and 0.607 and 0.591 and 0.773
- OD600 growth curve (3 ug/mL Sisomicin, time point 15:19:10): 0.739 and 0.631 and 0.623 and 0.789
- OD600 growth curve (3 ug/mL Sisomicin, time point 15:39:10): 0.731 and 0.629 and 0.62 and 0.782
- OD600 growth curve (3 ug/mL Sisomicin, time point 15:59:10): 0.728 and 0.621 and 0.619 and 0.782
- OD600 growth curve (3 ug/mL Sisomicin, time point 16:19:10): 0.717 and 0.616 and 0.619 and 0.767
- OD600 growth curve (3 ug/mL Sisomicin, time point 16:39:10): 0.704 and 0.61 and 0.614 and 0.754
- OD600 growth curve (3 ug/mL Sisomicin, time point 16:59:10): 0.696 and 0.605 and 0.609 and 0.743
- OD600 growth curve (3 ug/mL Sisomicin, time point 17:19:10): 0.688 and 0.602 and 0.607 and 0.733
- OD600 growth curve (6 ug/mL Sisomicin, time point 09:19:10): 0.525 and 0.527 and 0.709 and 0.785
- OD600 growth curve (6 ug/mL Sisomicin, time point 09:39:10): 0.535 and 0.539 and 0.71 and 0.802
- OD600 growth curve (6 ug/mL Sisomicin, time point 09:59:10): 0.549 and 0.548 and 0.717 and 0.812
- OD600 growth curve (6 ug/mL Sisomicin, time point 10:19:10): 0.557 and 0.555 and 0.722 and 0.825
- OD600 growth curve (6 ug/mL Sisomicin, time point 10:39:10): 0.567 and 0.564 and 0.727 and 0.833
- OD600 growth curve (6 ug/mL Sisomicin, time point 10:59:10): 0.578 and 0.57 and 0.732 and 0.845
- OD600 growth curve (6 ug/mL Sisomicin, time point 11:19:10): 0.587 and 0.577 and 0.735 and 0.85
- OD600 growth curve (6 ug/mL Sisomicin, time point 11:39:10): 0.597 and 0.584 and 0.741 and 0.854
- OD600 growth curve (6 ug/mL Sisomicin, time point 11:59:10): 0.606 and 0.591 and 0.742 and 0.852
- OD600 growth curve (6 ug/mL Sisomicin, time point 12:19:10): 0.613 and 0.596 and 0.746 and 0.851
- OD600 growth curve (6 ug/mL Sisomicin, time point 15:39:10): 0.674 and 0.64 and 0.763 and 0.75
- OD600 growth curve (6 ug/mL Sisomicin, time point 15:59:10): 0.672 and 0.635 and 0.76 and 0.741
- OD600 growth curve (6 ug/mL Sisomicin, time point 16:19:10): 0.676 and 0.639 and 0.765 and 0.733
- OD600 growth curve (6 ug/mL Sisomicin, time point 16:39:10): 0.677 and 0.641 and 0.765 and 0.725
- OD600 growth curve (6 ug/mL Sisomicin, time point 16:59:10): 0.676 and 0.638 and 0.764 and 0.717
- OD600 growth curve (6 ug/mL Sisomicin, time point 17:19:10): 0.676 and 0.638 and 0.763 and 0.71
- OD600 growth curve (12 ug/mL Sisomicin, time point 09:19:10): 0.093 and 0.105 and 0.112 and 0.109
- OD600 growth curve (12 ug/mL Sisomicin, time point 09:39:10): 0.093 and 0.104 and 0.112 and 0.108
- OD600 growth curve (12 ug/mL Sisomicin, time point 09:59:10): 0.093 and 0.104 and 0.112 and 0.108
- OD600 growth curve (12 ug/mL Sisomicin, time point 10:19:10): 0.093 and 0.103 and 0.111 and 0.108
- OD600 growth curve (12 ug/mL Sisomicin, time point 10:39:10): 0.093 and 0.103 and 0.111 and 0.108
- OD600 growth curve (12 ug/mL Sisomicin, time point 10:59:10): 0.093 and 0.102 and 0.111 and 0.107
- OD600 growth curve (12 ug/mL Sisomicin, time point 11:19:10): 0.093 and 0.102 and 0.11 and 0.106
- OD600 growth curve (12 ug/mL Sisomicin, time point 11:39:10): 0.093 and 0.102 and 0.11 and 0.106
- OD600 growth curve (12 ug/mL Sisomicin, time point 11:59:10): 0.093 and 0.101 and 0.11 and 0.107
- OD600 growth curve (12 ug/mL Sisomicin, time point 12:19:10): 0.093 and 0.101 and 0.109 and 0.106
- OD600 growth curve (12 ug/mL Sisomicin, time point 15:19:10): 0.1 and 0.107 and 0.103
- OD600 growth curve (12 ug/mL Sisomicin, time point 15:39:10): 0.093 and 0.1 and 0.107 and 0.102
- OD600 growth curve (12 ug/mL Sisomicin, time point 15:59:10): 0.093 and 0.1 and 0.107 and 0.102
- OD600 growth curve (12 ug/mL Sisomicin, time point 16:19:10): 0.093 and 0.1 and 0.107 and 0.102
- OD600 growth curve (12 ug/mL Sisomicin, time point 16:39:10): 0.093 and 0.1 and 0.106 and 0.102
- OD600 growth curve (12 ug/mL Sisomicin, time point 16:59:10): 0.093 and 0.1 and 0.106 and 0.102
- OD600 growth curve (12 ug/mL Sisomicin, time point 17:19:10): 0.093 and 0.1 and 0.106 and 0.102
